In patent publication US20110033488A1, “AGENTS AND METHODS FOR TREATMENT OF ANXIETY DISORDERS” (Yeda Research and Development Co. Ltd., priority 2008, published 2011):
At least one peptide structure holds a part that was inferred or is arguable (an end, a ring closure or a residue). Peptide text beside a SMILES is read from it.

What was measured:
Assay type in all cases: in vivo, mouse
[1] = system: C57BL/6J mice exposed to predator odor; test: Acoustic startle response after exposure to predator odor; conditions: tested 1 week after stress
BDNF = BDNF immunoreactivity in the dentate gyrus after predator odor stress; conditions: for BDNF levels in the DG: immunized 1 week before stress
[2] = system: C57BL/6J mice exposed to predator odor; test: Elevated plus-maze after exposure to predator odor
[3] = C57BL/6J mice immunized one week before 15 min predator odor, tested 1 week after stress, mean ± SEM

SMILES: CSCC[C@H](N)C(=O)N[C@@H](CCC(=O)O)C(=O)N[C@H](C(=O)NCC(=O)N[C@@H](Cc1c[nH]c2ccccc12)C(=O)N[C@@H](Cc1ccc(O)cc1)C(=O)N[C@@H](CCCNC(=N)N)C(=O)N[C@@H](CO)C(=O)N1CCC[C@H]1C(=O)N[C@@H](Cc1ccccc1)C(=O)N[C@@H](CO)C(=O)N[C@@H](CCCNC(=N)N)C(=O)N[C@H](C(=O)N[C@H](C(=O)N[C@@H](Cc1c[nH]cn1)C(=O)N[C@@H](CC(C)C)C(=O)N[C@@H](Cc1ccc(O)cc1)C(=O)N[C@@H](CCCNC(=N)N)C(=O)N[C@@H](CC(N)=O)C(=O)NCC(=O)N[C@@H](CCCCN)C(=O)O)C(C)C)C(C)C)C(C)C [pMOG35-55] (H-MEVGWYRSPFSRVVHLYRNGK-OH; N-terminus and C-terminus assumed)
- Acoustic startle amplitude ([1]; C57BL/6J mice immunized one week before 15 min predator odor, mean ± SEM): 344 ± 57.7
- Acoustic startle response versus control-injected mice ([1]; immunized 1 week before predator odor): weaker acoustic startle response
- BDNF levels in the DG (BDNF; 24 hrs after the stress): reduced
- BDNF levels in the DG (BDNF; 7 days following stress): significantly restored
- BDNF levels versus PBS-treated mice (BDNF; unstressed mice, 14 days after immunization): No significant differences
- Number of entries to the open arms [2, 3]: 3.3 ± 0.3
- Time spent in the open arms [2, 3]: 1.4 ± 0.1 min
- Time spent in the open arms of the elevated plus-maze versus control-injected mice ([2]; immunized 1 week before predator odor, tested 1 week after stress): larger time spent in the open arms
- Exploratory activity ([2]; total arm entries, C57BL/6J mice immunized one week before predator odor, mean ± SEM): 17 ± 1.2
